Test results published in publication PMC12270237.

Molecular target: MICU1-HA
Assay: affinity purification with mass spectrometry; IP of MICU1-HA from Mcu-/- HEK 293T cells expressing MICU1-HA alone or with MICU2-Myc and/or MICU3-FLAG; LC/MS; hits cross-referenced with a published MICU1-BioID2 dataset

Row | binding | Binder
1 | binds | Glycerol-3-phosphate dehydrogenase (GPD2) (protein, UniProt P43304 43-727) ADCISEPVNREPPSREAQLLTLQNTSEFDILVIGGGATGSGCALDAVTRGLKTALVERDDFSSGTSSRSTKLIHGGVRYLQKAIMKLDIEQYRMVKEALHERANLLEIAPHLSAPLPIMLPVYKWWQLPYYWVGIKLYDLVAGSNCLKSSYVLSKSRALEHFPMLQKDKLVGAIVYYDGQHNDARMNLAIALTAARYGAATANYMEVVSLLKKTDPQTGKVRVSGARCKDVLTGQEFDVRAKCVINATGPFTDSVRKMDDKDAAAICQPSAGVHIVMPGYYSPESMGLLDPATSDGRVIFFLPWQKMTIAGTTDTPTDVTHHPIPSEEDINFILNEVRNYLSCDVEVRRGDVLAAWSGIRPLVTDPKSADTQSISRNHVVDISESGLITIAGGKWTTYRSMAEDTINAAVKTHNLKAGPSRTVGLFLQGGKDWSPTLYIRLVQDYGLESEVAQHLAATYGDKAFEVAKMASVTGKRWPIVGVRLVSEFPYIEAEVKYGIKEYACTAVDMISRRTRLAFLNVQAAEEALPRIVELMGRELNWDDYKKQEQLETARKFLYYEMGYKSRSEQLTDRSEISLLPSDIDRYKKRFHKFDADQKGFITIVDVQRVLESINVQMDENTLHEILNEVDLNKNGQVELNEFLQLMSAIQKGRVSGSRLAILMKTAEENLDRRVPIPVDRSCGGL
2 | binds | Succinate dehydrogenase iron-sulfur subunit B (SDHB) (protein, UniProt P21912 29-280) AQTAAATAPRIKKFAIYRWDPDKAGDKPHMQTYEVDLNKCGPMVLDALIKIKNEVDSTLTFRRSCREGICGSCAMNINGGNTLACTRRIDTNLNKVSKIYPLPHMYVIKDLVPDLSNFYAQYKSIEPYLKKKDESQEGKQQYLQSIEEREKLDGLYECILCACCSTSCPSYWWNGDKYLGPAVLMQAYRWMIDSRDDFTEERLAKLQDPFSLYRCHTIMNCTRTCPKGLNPGKAIAEIKKMMATYKEKKASV

Results are given in words; binding and its absence hold for the method and conditions named. Binding seen in cells or lysates may run through a third protein. A yes stands for co-enrichment or nearness to the bait. Other partners may have been found.
